No constants are given. Whether binding was seen depends on the method and setting. Binding seen in cells or lysates may run through a third protein. These calls come from enrichment with a bait or labelling near it, and not all partners need be listed.
Target: FLAG-EZH2 (wild-type) (UniProt Q15910)
Assay: affinity purification with mass spectrometry; whole cell lysates of MDA-MB-231 knockdown-rescue cells expressing FLAG vector, FLAG-EZH2 or FLAG-T367A; anti-FLAG antibody beads; on-bead digestion, LC-MS/MS; SAINT and FC scoring; three biological replicates

Protein sequences, listed by entry. Tags and fused reporters are not part of them.
UniProt Q15910: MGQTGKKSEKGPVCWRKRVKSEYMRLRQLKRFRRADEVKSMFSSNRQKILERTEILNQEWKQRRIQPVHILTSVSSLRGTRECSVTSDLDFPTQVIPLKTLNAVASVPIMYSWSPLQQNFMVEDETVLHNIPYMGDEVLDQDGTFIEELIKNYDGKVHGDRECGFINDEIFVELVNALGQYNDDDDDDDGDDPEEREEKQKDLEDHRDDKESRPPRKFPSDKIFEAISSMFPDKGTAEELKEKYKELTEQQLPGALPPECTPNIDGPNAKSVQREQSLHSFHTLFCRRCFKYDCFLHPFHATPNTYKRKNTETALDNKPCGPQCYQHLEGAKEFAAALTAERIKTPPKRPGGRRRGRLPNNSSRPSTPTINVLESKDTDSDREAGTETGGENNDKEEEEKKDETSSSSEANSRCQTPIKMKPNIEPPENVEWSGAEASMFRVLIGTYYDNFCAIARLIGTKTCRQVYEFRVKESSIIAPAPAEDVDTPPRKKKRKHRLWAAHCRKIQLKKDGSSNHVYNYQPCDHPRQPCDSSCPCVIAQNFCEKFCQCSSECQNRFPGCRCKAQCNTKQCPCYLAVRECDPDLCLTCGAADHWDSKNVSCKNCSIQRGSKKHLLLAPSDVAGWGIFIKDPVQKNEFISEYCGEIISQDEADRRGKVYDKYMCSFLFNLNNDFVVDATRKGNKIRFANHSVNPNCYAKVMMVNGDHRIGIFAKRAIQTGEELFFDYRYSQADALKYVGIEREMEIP

Row | binding | Binder
1 | binds | EPS8 related protein 2 (protein, UniProt Q9H6S3 1-715) MSQSGAVSCCPGATNGSLGRSDGVAKMSPKDLFEQRKKYSNSNVIMHETSQYHVQHLATFIMDKSEAITSVDDAIRKLVQLSSKEKIWTQEMLLQVNDQSLRLLDIESQEELEDFPLPTVQRSQTVLNQLRYPSVLLLVCQDSEQSKPDVHFFHCDEVEAELVHEDIESALADCRLGKKMRPQTLKGHQEKIRQRQSILPPPQGPAPIPFQHRGGDSPEAKNRVGPQVPLSEPGFRRRESQEEPRAVLAQKIEKETQILNCALDDIEWFVARLQKAAEAFKQLNQRKKGKKKGKKAPAEGVLTLRARPPSEGEFIDCFQKIKLAINLLAKLQKHIQNPSAAELVHFLFGPLDLIVNTCSGPDIARSVSCPLLSRDAVDFLRGHLVPKEMSLWESLGESWMRPRSEWPREPQVPLYVPKFHSGWEPPVDVLQEAPWEVEGLASAPIEEVSPVSRQSIRNSQKHSPTSEPTPPGDALPPVSSPHTHRGYQPTPAMAKYVKILYDFTARNANELSVLKDEVLEVLEDGRQWWKLRSRSGQAGYVPCNILGEARPEDAGAPFEQAGQKYWGPASPTHKLPPSFPGNKDELMQHMDEVNDELIRKISNIRAQPQRHFRVERSQPVSQPLTYESGPDEVRAWLEAKAFSPRIVENLGILTGPQLFSLNKEELKKVCGEEGVRVYSQLTMQKAFLEKQQSGSELEELMNKFHSMNQRRGEDS
2 | binds | MLPH (protein, UniProt Q9BV36 1-600) MGKKLDLSKLTDEEAQHVLEVVQRDFDLRRKEEERLEALKGKIKKESSKRELLSDTAHLNETHCARCLQPYQLLVNSKRQCLECGLFTCKSCGRVHPEEQGWICDPCHLARVVKIGSLEWYYEHVKARFKRFGSAKVIRSLHGRLQGGAGPELISEERSGDSDQTDEDGEPGSEAQAQAQPFGSKKKRLLSVHDFDFEGDSDDSTQPQGHSLHLSSVPEARDSPQSLTDESCSEKAAPHKAEGLEEADTGASGCHSHPEEQPTSISPSRHGALAELCPPGGSHRMALGTAAALGSNVIRNEQLPLQYLADVDTSDEESIRAHVMASHHSKRRGRASSESQIFELNKHISAVECLLTYLENTVVPPLAKGLGAGVRTEADVEEEALRRKLEELTSNVSDQETSSEEEEAKDEKAEPNRDKSVGPLPQADPEVGTAAHQTNRQEKSPQDPGDPVQYNRTTDEELSELEDRVAVTASEVQQAESEVSDIESRIAALRAAGLTVKPSGKPRRKSNLPIFLPRVAGKLGKRPEDPNADPSSEAKAMAVPYLLRRKFSNSLKSQGKDDDSFDRKSVYRGSLTQRNPNARKGMASHTFAKPVVAHQS

From PMC6051995
